US20240117038A1
Results are given in words; binding and its absence hold for the method and conditions named. Some results given as binding are weak or reduced against the parent protein; the word gives no strength.

Amino acid sequences for entries named in this document (tags omitted). A change or cut given only in a name is not applied to a line headed by its entry.
UniProt P49238: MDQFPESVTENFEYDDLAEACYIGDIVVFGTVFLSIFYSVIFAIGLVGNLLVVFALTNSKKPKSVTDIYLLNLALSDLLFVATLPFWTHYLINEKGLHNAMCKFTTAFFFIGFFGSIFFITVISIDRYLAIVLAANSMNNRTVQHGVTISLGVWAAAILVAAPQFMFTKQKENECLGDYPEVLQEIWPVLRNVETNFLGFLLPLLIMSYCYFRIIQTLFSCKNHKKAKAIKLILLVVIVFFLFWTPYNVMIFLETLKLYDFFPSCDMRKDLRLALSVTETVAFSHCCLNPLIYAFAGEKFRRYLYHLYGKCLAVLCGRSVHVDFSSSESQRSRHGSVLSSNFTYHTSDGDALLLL

Experiments:
[1] = target: cynomolgus CX3CR1 (cynomolgus monkey (Macaca fascicularis)); assay: flow cytometry on CHO K1 cyCX3CR1 cells, 30 uM HSA
human CX3CR1 (human) [2] = target: human CX3CR1 (human) (UniProt P49238); assay: flow cytometry on CHO K1 huCX3CR1 cells, 30 uM HSA
human CX3CR1 (human) [3] = target: human CX3CR1 (human) (UniProt P49238); assay: flow cytometry on transiently transfected HEK293T cells
[4] = target: human CX3CR1 T280M (human) (UniProt P49238); assay: as above
[5] = target: human CX3CR1 V249I (human) (UniProt P49238); assay: as above
[6] = target: human CX3CR1 V249I/T280M (human) (UniProt P49238); assay: as above

Measured: binding

B1: A041600034 (VHH)
chain: DVQLVESGGGSVQPGGSLRLSCAASGSIFSSTAMAWYRQAPGKQRDLVAVISTVGITKYADSVKGRFTISRDNAKNTVYLQMNSLRPEDTALYYCTSDARRGWDTRYWGQGTLVTVSSGGGGSGGGSEVQLVESGGGVVQPGGSLRLSCAASGFTFRSFGMSWVRQAPGKGPEWVSSISGSGSDTLYADSVKGRFTISRDNSKNTLYLQMNSLRPEDTALYYCTIGGSLSRSSQGTLVTVSSGGGGSGGGSEVQLVESGGGSVQPGGSLRLSCAASGSIFSSTAMAWYRQAPGKRRDLVAAINTVGVTKYADSVKGRFTISRDNAKNTVYLQMNSLRPEDTALYYCTSDPRRGWDTRYWGQGTLVTVSSA
binds: [1] | human CX3CR1 (human) [2] | human CX3CR1 (human) [3] | [4] | [5] | [6]

B2: A041600010 (VHH)
chain: DVQLVESGGGSVQPGGSLRLSCAASGSIFSSTAMAWYRQAPGKRRDLVAAINTVGVTKYADSVKGRFTISRDNAKNTVYLQMNSLRPEDTALYYCTSDPRRGWDTRYWGQGTLVTVSSGGGGSGGGSEVQLVESGGGVVQPGGSLRLSCAASGFTFRSFGMSWVRQAPGKGPEWVSSISGSGSDTLYADSVKGRFTISRDNSKNTLYLQMNSLRPEDTALYYCTIGGSLSRSSQGTLVTVSSGGGGSGGGSEVQLVESGGGSVQPGGSLRLSCAASGSIFSSTAMAWYRQAPGKRRDLVAAINTVGVTKYADSVKGRFTISRDNAKNTVYLQMNSLRPEDTALYYCTSDPRRGWDTRYWGQGTLVTVSSA
binds: [1] | human CX3CR1 (human) [2]

B3: A041600026 (VHH)
chain: DVQLVESGGGSVQPGGSLRLSCAASGSIFSSTAMAWYRQAPGKRRDLVAAINTVGVTKYADSVKGRFTISRDNAKNTVYLQMNSLRPEDTALYYCTSDPRRGWDTRYWGQGTLVTVSSGGGGSGGGGSGGGGSGGGGSEVQLVESGGGVVQPGGSLRLSCAASGFTFRSFGMSWVRQAPGKGPEWVSSISGSGSDTLYADSVKGRFTISRDNSKNTLYLQMNSLRPEDTALYYCTIGGSLSRSSQGTLVTVSSGGGGSGGGGSGGGGSGGGGSEVQLVESGGGSVQPGGSLRLSCAASGSIFSSTAMAWYRQAPGKRRDLVAAINTVGVTKYADSVKGRFTISRDNAKNTVYLQMNSLRPEDTALYYCTSDPRRGWDTRYWGQGTLVTVSSA
binds: [1] | human CX3CR1 (human) [2]
